Experimental data from publication PMC7817543.
No constants are given. Whether binding was seen depends on the method and setting. In cells and extracts the contact can be indirect. Some entries that bind do so weakly or less than the wild type. For part of these data: Tags and fused reporters may be left off the sequences shown. Blank lines part the entries; values can stand above or below the molecule they belong to.

Amino acid sequences for entries named in this document (tags omitted).
UniProt P46937: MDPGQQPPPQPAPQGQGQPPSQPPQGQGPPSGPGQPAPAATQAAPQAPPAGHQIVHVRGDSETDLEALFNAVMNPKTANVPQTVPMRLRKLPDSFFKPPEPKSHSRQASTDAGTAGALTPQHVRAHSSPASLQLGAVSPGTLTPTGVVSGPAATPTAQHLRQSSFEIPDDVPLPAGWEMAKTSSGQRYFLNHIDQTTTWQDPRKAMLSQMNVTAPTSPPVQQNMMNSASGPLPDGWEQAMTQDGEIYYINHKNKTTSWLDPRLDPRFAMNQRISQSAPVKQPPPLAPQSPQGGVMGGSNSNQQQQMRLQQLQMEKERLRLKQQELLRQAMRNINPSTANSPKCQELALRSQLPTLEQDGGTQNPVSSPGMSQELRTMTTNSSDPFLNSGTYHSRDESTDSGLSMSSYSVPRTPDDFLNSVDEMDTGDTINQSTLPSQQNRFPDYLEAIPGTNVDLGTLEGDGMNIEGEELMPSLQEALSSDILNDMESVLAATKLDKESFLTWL

Experiments:
Flag-NUSAP1 (human) = molecular target: T1, Flag-NUSAP1 (human) (UniProt Q9BXS6); experiment: co-IP; anti-Flag beads on lysates of transfected BGC823 cells; 1000 μg total protein, 4°C, 4 h; Western blot
T1 sequence: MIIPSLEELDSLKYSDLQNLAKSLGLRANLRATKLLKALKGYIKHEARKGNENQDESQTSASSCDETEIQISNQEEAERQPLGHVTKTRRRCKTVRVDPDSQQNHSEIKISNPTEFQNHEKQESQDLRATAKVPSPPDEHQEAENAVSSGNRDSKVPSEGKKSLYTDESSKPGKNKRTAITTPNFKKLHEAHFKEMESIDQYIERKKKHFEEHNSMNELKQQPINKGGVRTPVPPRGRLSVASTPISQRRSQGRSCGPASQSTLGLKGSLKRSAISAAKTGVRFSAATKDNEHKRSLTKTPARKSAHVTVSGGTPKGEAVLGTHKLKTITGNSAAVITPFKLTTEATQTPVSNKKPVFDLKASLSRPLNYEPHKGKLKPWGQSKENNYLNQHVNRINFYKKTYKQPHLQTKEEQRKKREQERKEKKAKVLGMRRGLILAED

[1] = molecular target: Yes-associated protein (YAP1), endogenous (human (endogenous in BGC823)) (UniProt P46937); experiment: co-IP; BGC823 cell lysates immunoprecipitated with anti-YAP1 or control IgG; Western blot with anti-NUSAP1 and anti-YAP1; endogenous proteins
ectopic YAP1 = ectopic YAP1 (UniProt P46937); experiment: co-IP; anti-HA beads on lysates of transfected SGC7901 cells; 1000 μg total protein, 4°C, 4 h; Western blot

- binding (Flag-NUSAP1 (human)): binds
Molecule: ectopic YAP1 (from UniProt P46937 1-504)

- binding [1]: binds
B1: nucleolar spindle-associated protein 1 (NUSAP1), endogenous (protein, UniProt Q9BXS6 1-441)
chain: MIIPSLEELDSLKYSDLQNLAKSLGLRANLRATKLLKALKGYIKHEARKGNENQDESQTSASSCDETEIQISNQEEAERQPLGHVTKTRRRCKTVRVDPDSQQNHSEIKISNPTEFQNHEKQESQDLRATAKVPSPPDEHQEAENAVSSGNRDSKVPSEGKKSLYTDESSKPGKNKRTAITTPNFKKLHEAHFKEMESIDQYIERKKKHFEEHNSMNELKQQPINKGGVRTPVPPRGRLSVASTPISQRRSQGRSCGPASQSTLGLKGSLKRSAISAAKTGVRFSAATKDNEHKRSLTKTPARKSAHVTVSGGTPKGEAVLGTHKLKTITGNSAAVITPFKLTTEATQTPVSNKKPVFDLKASLSRPLNYEPHKGKLKPWGQSKENNYLNQHVNRINFYKKTYKQPHLQTKEEQRKKREQERKEKKAKVLGMRRGLILAED

- binding (ectopic YAP1): binds
B2: Flag-NUSAP1 (protein, UniProt Q9BXS6 1-441)
chain: MIIPSLEELDSLKYSDLQNLAKSLGLRANLRATKLLKALKGYIKHEARKGNENQDESQTSASSCDETEIQISNQEEAERQPLGHVTKTRRRCKTVRVDPDSQQNHSEIKISNPTEFQNHEKQESQDLRATAKVPSPPDEHQEAENAVSSGNRDSKVPSEGKKSLYTDESSKPGKNKRTAITTPNFKKLHEAHFKEMESIDQYIERKKKHFEEHNSMNELKQQPINKGGVRTPVPPRGRLSVASTPISQRRSQGRSCGPASQSTLGLKGSLKRSAISAAKTGVRFSAATKDNEHKRSLTKTPARKSAHVTVSGGTPKGEAVLGTHKLKTITGNSAAVITPFKLTTEATQTPVSNKKPVFDLKASLSRPLNYEPHKGKLKPWGQSKENNYLNQHVNRINFYKKTYKQPHLQTKEEQRKKREQERKEKKAKVLGMRRGLILAED
